According to PMC8449257:
No constants are given. Whether binding was seen depends on the method and setting. A result given as binding can be weak or reduced; the word gives no strength.

Protein sequences, listed by entry. Tags and fused reporters are not part of them. Lines headed by an entry give the natural chain unless they say otherwise; changes in a name come on top.
UniProt Q27874: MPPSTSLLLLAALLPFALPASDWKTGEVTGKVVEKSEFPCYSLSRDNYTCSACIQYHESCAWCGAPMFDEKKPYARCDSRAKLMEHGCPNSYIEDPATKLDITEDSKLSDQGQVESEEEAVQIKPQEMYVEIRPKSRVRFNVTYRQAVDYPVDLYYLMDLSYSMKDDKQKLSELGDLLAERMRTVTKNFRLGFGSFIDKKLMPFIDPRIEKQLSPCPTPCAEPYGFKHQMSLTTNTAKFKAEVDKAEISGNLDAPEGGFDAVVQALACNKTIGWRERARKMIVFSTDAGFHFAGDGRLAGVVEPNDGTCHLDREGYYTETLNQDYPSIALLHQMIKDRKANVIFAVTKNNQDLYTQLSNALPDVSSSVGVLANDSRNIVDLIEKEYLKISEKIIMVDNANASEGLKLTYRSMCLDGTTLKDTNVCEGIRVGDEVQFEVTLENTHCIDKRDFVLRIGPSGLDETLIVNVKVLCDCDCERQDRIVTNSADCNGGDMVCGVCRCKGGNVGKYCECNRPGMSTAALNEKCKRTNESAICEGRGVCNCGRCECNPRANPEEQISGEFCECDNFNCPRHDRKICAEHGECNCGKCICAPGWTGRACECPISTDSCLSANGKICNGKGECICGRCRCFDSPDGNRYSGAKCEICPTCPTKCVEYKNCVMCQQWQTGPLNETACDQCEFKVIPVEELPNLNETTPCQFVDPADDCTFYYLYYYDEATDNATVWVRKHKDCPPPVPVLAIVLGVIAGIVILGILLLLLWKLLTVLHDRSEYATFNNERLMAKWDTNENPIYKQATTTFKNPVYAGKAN

Biological target: PAT-3 (beta-integrin) (C. elegans) (UniProt Q27874)
Test: two-hybrid; yeast PJ69-4A; UNC-112 forms as prey (pGAD-C3 or pACT-Q), PAT-4 or UNC-112C as bait (pGBDU); read-out is growth on His- (2 mM 3-amino-1,2,4-triazole in the screen) and Ade- plates

binding | Binder
binds | UNC-112 (kindlin), wild type (protein, UniProt Q18685 1-720) MAHLVEGTSIIDGKWQLPILVTDLNIQRSISVLGNLNVGGLMLELVSECDVERDWSDHALWWPEKRRWLQHTRSTLDQNGITAETQLEFTPMHKEARIQLPDMQMIDARVDFSVNSFKATKKLCRDLGIRYSEELSLKRYIPPEDLRRGTSDADNMNGPLSMRPGEESVGPMTLRKAAPIFASQSNLDMRRRGQSPALSQSGHIFNAHEMGTLPRHGTLPRGVSPSPGAYNDTMRRTPIMPSISFSEGLENEQFDDALIHSPRLAPSRDTPVFRPQNYVEKAAINRGWLDSSRSLMEQGIFEGDIILLRFKFMNFFDLNPKYDPVRINQLYEQAKWSILLDEFDHTEEEATLFAALQLQATLQRDSPEPEENNKDDVDILLDELEQNLDAAALNRRSDLTQVPELADYLKYMKPKKLAAFKGFKRAFFSFRDLYLSYHQSSSDVNSAPLGHFSLKGCEVSQDVSVGQQKYHIKLLLPTAEGMIDFILKCDSEHQYARWMAACRLASRGKSMADSSYQQEVESIKNLLKMQSGNGNENGNSNTASRKAAAVKLPNDFNVDEYISSKYVRRARSKQQIQQRVSDAHGNVRQLTATEAKLQYIRAWQALPEHGIHYFIVRFRNARKAELVAVAVNRLAKLNMDNGESLKTWRFANMKKWHVNWEIRHLKIQFEDEDIEFKPLSADCKVVHEFIGGYIFLSMRSKEHSQNLDEELFHKLTGGWA
binds | UNC-112 E302G (full length) (protein, UniProt Q18685 1-720) MAHLVEGTSIIDGKWQLPILVTDLNIQRSISVLGNLNVGGLMLELVSECDVERDWSDHALWWPEKRRWLQHTRSTLDQNGITAETQLEFTPMHKEARIQLPDMQMIDARVDFSVNSFKATKKLCRDLGIRYSEELSLKRYIPPEDLRRGTSDADNMNGPLSMRPGEESVGPMTLRKAAPIFASQSNLDMRRRGQSPALSQSGHIFNAHEMGTLPRHGTLPRGVSPSPGAYNDTMRRTPIMPSISFSEGLENEQFDDALIHSPRLAPSRDTPVFRPQNYVEKAAINRGWLDSSRSLMEQGIFGGDIILLRFKFMNFFDLNPKYDPVRINQLYEQAKWSILLDEFDHTEEEATLFAALQLQATLQRDSPEPEENNKDDVDILLDELEQNLDAAALNRRSDLTQVPELADYLKYMKPKKLAAFKGFKRAFFSFRDLYLSYHQSSSDVNSAPLGHFSLKGCEVSQDVSVGQQKYHIKLLLPTAEGMIDFILKCDSEHQYARWMAACRLASRGKSMADSSYQQEVESIKNLLKMQSGNGNENGNSNTASRKAAAVKLPNDFNVDEYISSKYVRRARSKQQIQQRVSDAHGNVRQLTATEAKLQYIRAWQALPEHGIHYFIVRFRNARKAELVAVAVNRLAKLNMDNGESLKTWRFANMKKWHVNWEIRHLKIQFEDEDIEFKPLSADCKVVHEFIGGYIFLSMRSKEHSQNLDEELFHKLTGGWA
